Laboratory results: PubChem BioAssay AID686943 (Drosophila RNAi Screening Center, 2013)

- Assay: 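Fly genes whose loss alters ERK activation after insulin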 (primary screen)
- Cell system: Drosophila S2R+ haemocyte-like cells expressing YFP-tagged ERK (Rolled)
- Reagent: long dsRNA against Drosophila genes
- Treatment: insulin stimulation versus unstimulated cells; dose and duration not given
- Measurement: 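Per-plate z-scores of phospho-ERK immunostaining normalised to YFP-tagged ERK, measured with and without insulin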
- Direction: replicate 1, z-score of dpERK with insulin and replicate 2, z-score of dpERK with insulin: higher = more active ERK per ERK-YFP after insulin; replicate 1, z-score of dpERK under basal conditions: higher = more basal active ERK per ERK-YFP; replicate 1, z-score of ERK-YFP with insulin: higher = more YFP-tagged ERK signal
The screen tested about 23,000 reagents; below is an unselected part of those with a known target gene and a result. 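Extra replicates exist only for a retested subset of genes; insulin dose and duration not given; both raised and lowered dpERK matter.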 Reagents against one gene are numbered here. Not given: the amount of reagent, the time to read-out.

gene,dsRNA no.,"replicate 1, z-score of dpERK with insulin","replicate 2, z-score of dpERK with insulin","replicate 1, z-score of dpERK under basal conditions","replicate 1, z-score of ERK-YFP with insulin"
rho-5 (GeneID 2768944),1,0.48,0.15,-1.65,-0.43
dec (GeneID 31691),1,1.8,1.17,-0.32,0.1
dec (GeneID 31691),2,0.36,0,0.53,-0.37
CG5781 (GeneID 34678),1,0.43,0.42,-0.17,-0.12
unc-104 (GeneID 36876),1,0.3,0.43,-0.46,0.19
CRMP (GeneID 40675),1,-1.03,-0.06,0.79,-0.36
CRMP (GeneID 40675),2,-1.09,-0.93,-0.43,0.15
Sur-8 (GeneID 42093),1,-3.31,0.04,-0.45,0.43
CG32201 (GeneID 317911),1,0.07,0.49,0.59,-0.17
Mapmodulin (GeneID 37043),1,0.43,-0.53,1.34,-0.96
CG13872 (GeneID 37273),1,0.16,-0.09,-0.65,-0.51
Sobp (GeneID 36260),1,0.25,0.21,0.08,1.11
Aduk (GeneID 41112),1,0.58,0.2,-0.28,-0.54
CG10132 (GeneID 35239),1,-0.04,-0.17,1.03,0.63

Next part; the last 2 above are carried over.
gene,dsRNA no.,"replicate 1, z-score of dpERK with insulin","replicate 2, z-score of dpERK with insulin","replicate 1, z-score of dpERK under basal conditions","replicate 1, z-score of ERK-YFP with insulin"
Aduk (GeneID 41112),1,0.58,0.2,-0.28,-0.54
CG10132 (GeneID 35239),1,-0.04,-0.17,1.03,0.63
CG18682 (retired record) (GeneID 50098),1,0.88,-0.15,-0.36,0.33
CG18682 (retired record) (GeneID 50098),2,1.19,0.24,0.6,-0.21
Uros1 (GeneID 31817),1,0.66,0.95,0.25,0.16
Rdh1 (GeneID 35708),1,0.04,0.26,-0.88,0.48
IntS14 (GeneID 33300),1,0.17,-0.19,-0.05,1.11
CG5938 (GeneID 43290),1,-0.08,-2.31,-0.45,0.1
CG13516 (GeneID 3885599),1,0.3,0,0.12,0.59
lz (GeneID 31883),1,-2.87,0.66,-0.3,-0.07
lz (GeneID 31883),2,-1.18,-1.74,0.44,0.86
